Source: PubChem BioAssay AID587 (National Center for Advancing Translational Sciences (NCATS), 2007)
Among all 59,000 compounds or so, about 35 (0.06%) were called active. This list was built around the results that the source calls inconclusive (neither active nor inactive); the mix of calls is not that of the screen. No stated cut-off is given here; in the data, active means max dye-equivalent concentration above about 10 nM; inconclusive means between about 1.1 nM and that limit; inactive means weaker than that. Where a SMILES comes first, the peptide text is derived from it. The star is where a group is joined. Boc = CC(C)(C)OC(=O)*

Test: qHTS Assay for Spectroscopic Profiling in Texas Red Spectral Region
Conditions: Compound fluorescence, Texas Red channel, 547/618 nm; stronger effect = higher value
In short: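 Fluorescence at ex 547/em 618 nm, normalized against an on-plate Texas Red standard series to give dye-equivalent concentration per compound concentration. Buffer 100 mM Tris, pH 8.0; 15 min RT incubation before CCD imaging.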

Row | Structure (SMILES) | max dye-equivalent concentration
1 | O=C(Cn1cnc2c(nnn2Cc2ccccc2F)c1=O)NCC1CCCO1 (configuration not stated) | inconclusive: 1.3 nM
2 | CCc1cccc2c3c([nH]c12)[C@](CC)(CC(=O)O)OCC3 | inactive
3 | CCCn1c(=O)c2c(ncn2C)n(CCC)c1=O | inconclusive: 1.2 nM
4 | CCc1cccc(C)c1NC(=O)CSc1nnc(-c2ccco2)n1N | inactive
5 | O=C(c1ccco1)N1CCN(C/C=C/c2ccccc2)CC1 | inconclusive: 1.2 nM
6 | CCOC(=O)CC(=O)CSc1nc2c(sc(=S)n2-c2ccccc2)c(=O)[nH]1 | inconclusive: 1.9 nM
7 | O=C(CN1C(=O)c2ccccc2S1(=O)=O)NC1CCCC1 | inconclusive: 1.5 nM
8 | COc1ccccc1CNc1cc(-c2ccccc2Cl)ncn1 | inconclusive: 1.3 nM
9 | CCOC(=O)Nc1cc(C)ccc1OC | inconclusive: 1.2 nM
10 | CNC(=O)c1cc2ccc(OC)cc2oc1=O | inactive
11 | CCOc1ccc(C(C#N)N2CCOCC2)cc1OC (configuration not stated) | inconclusive: 1.3 nM
12 | Cc1ccc(S(=O)(=O)NCC(=O)N(CC(=O)NCc2ccccc2)CC2CCCO2)cc1 (configuration not stated) | inconclusive: 1.4 nM
13 | CCn1nnc(NC(=O)c2cccc(-c3cc4ccccc4oc3=O)c2)n1 | inconclusive: 2.6 nM
14 | COc1ccc(-c2csc3ncnc(NCCN4CCOCC4)c23)cc1 | inconclusive: 1.6 nM
15 | Brc1ccc(-c2nn3c(-c4ccccn4)nnc3s2)o1 | inconclusive: 1.1 nM
16 | CCOC(=O)C1CCCN(C(=O)C2CC(=O)N(c3ccc(C)cc3)C2)C1 (configuration not stated) | inconclusive: 1.7 nM
17 | CCOC(=O)Cn1nnnc1C(C(C)C)N(Cc1cc2c(C)cc(C)cc2[nH]c1=O)C1CCCC1 (configuration not stated) | inconclusive: 1.1 nM
18 | O=C(Cn1nnc(-c2ccccc2-n2cnnn2)n1)c1ccccc1 | inconclusive: 1.5 nM
19 | COc1ccc(NC(=O)c2oc3cc(C)c(C)cc3c2C)c(OC)c1 | inconclusive: 1.4 nM
20 | C=CCn1c(SCC(=O)NCc2cccs2)nnc1C1CCCCC1 | inconclusive: 1.2 nM
21 | Cc1ccc(N(O)C(=O)OCCNC(=O)Nc2ccccc2)cc1 | inconclusive: 2.1 nM
22 | O=C(CC1SC(=NC2CCCCC2)NC1=O)Nc1ccccc1 (configuration not stated) | inconclusive: 2 nM

Row | Structure (SMILES) | max dye-equivalent concentration
23 | CS(=O)(=O)N(CC(=O)N1CCN(c2cccc(Cl)c2)CC1)c1ccccc1 | inconclusive: 2.1 nM
24 | CC1(C)CC2CC(C)(CN2C(=O)c2cccs2)C1 (configuration not stated) | inconclusive: 2.4 nM
25 | O=C(Nc1ccc(F)cc1F)c1cc(-c2ccco2)on1 | inconclusive: 1.1 nM
26 | Cc1ccc(-c2c(C#N)c(N)nc3c2CCCCC3)o1 | inconclusive: 1.4 nM
27 | O=C(NC1CCCCC1)N1CCc2ccccc21 | inconclusive: 1.7 nM
28 | O=C(NCCN1CCN(c2ccccc2)CC1)C1CCN(S(=O)(=O)c2cccs2)CC1 | inconclusive: 1.4 nM
29 | O=C(Nc1ccc(F)cc1)Nc1ccc(Cl)cn1 | inconclusive: 1.3 nM
30 | Cc1cc(=O)n(CCc2ccccc2)c(O)c1C#N | inconclusive: 1.2 nM
31 | CCC(C)C(NC(=O)OC(C)(C)C)C(=O)NC(CC(C)C)C(N)=O (stereo not drawn) (Boc-Ile-Leu-NH2; configuration not given here) | inconclusive: 1.2 nM
32 | O=C(O)CCCCCC[C@@H]1C(=O)NC(=O)N1CC[C@@H](O)C1CCCCC1 | inactive
33 | CCCCn1nnnc1NCc1cc(OC)c(OC)cc1OC | inconclusive: 1.5 nM
34 | CC1=C(C)CS(=O)N(S(=O)(=O)c2ccc(Cl)cc2)C1 (configuration not stated) | inconclusive: 1.2 nM
35 | NS(=O)(=O)c1cc2c(cc1Cl)=NC(CCC(=O)O)=NS=2(=O)O | inactive
36 | COC(=O)c1c(NC(=O)CN2CCC(C(N)=O)CC2)c2c(C)cccc2n1C | inconclusive: 1.5 nM
37 | CCOC(=O)C(CC)Sc1nc(-c2ccc(OC)cc2)nc2c1c(=O)n(C)c(=O)n2C (configuration not stated) | inactive
38 | Cc1nc2cnc(N3CCNCC3)nc2n(CCc2ccccc2)c1=O | inconclusive: 1.1 nM
39 | COc1ccc(S(=O)(=O)NC(CC(=O)NCCc2ccc(OC)c(OC)c2)c2ccco2)cc1 (configuration not stated) | inconclusive: 1.5 nM
40 | COc1ccc(Cl)cc1N1C(=O)[C@@H]2C(c3cccc(OC)c3OC)=NO[C@@H]2C1=O | inconclusive: 1.1 nM
41 | O=C(Nc1ccccc1)N1CCC(C(=O)N2CCN(S(=O)(=O)c3cccc(F)c3)CC2)CC1 | inconclusive: 1.3 nM
42 | O=C(CN1c2cccc3cccc(c23)S1(=O)=O)N1CCOCC1 | inactive
43 | CC1CCCCN1CCCn1c(=S)[nH]c2ccccc2c1=O (configuration not stated) | inconclusive: 1.2 nM
44 | O=C(CSCc1n[nH]c(=O)[nH]1)NCCOc1cccc(Oc2ccccc2)c1 | inconclusive: 1.6 nM

Row | Structure (SMILES) | max dye-equivalent concentration
45 | CC(=O)c1c(N2CCOCC2)nc(=S)n(-c2cc(C)ccc2C)c1C | inconclusive: 1.4 nM
46 | O=C(NCCc1ccccc1F)[C@@H]1CSC2c3ccccc3C(=O)N21 (some centres not stated) | inconclusive: 2.1 nM
47 | CCn1c(=O)cc(OCC(=O)NCCCN2CC(C)CC(C)C2)c2ccccc21 (configuration not stated) | inconclusive: 1.1 nM
48 | CC(C)(N)CO[C@H]1C[C@H]2CC[C@@]1(C)C2(C)C | inactive
49 | CCCn1cc2c(c1-c1cccc(C)c1)c(=O)n(C)c(=O)n2C | inconclusive: 1.3 nM
50 | CC(C)CC(c1nnnn1CC1CCCO1)N1CCN(Cc2ccc3c(c2)OCO3)CC1 (configuration not stated) | inconclusive: 1.2 nM
51 | CCN=C(N)CSS(=O)(=O)O | inactive
52 | CC1CCc2c(C(=O)NCCCN3CCOCC3)csc2C1 (configuration not stated) | inconclusive: 1.2 nM
53 | Cc1cccc(C#Cc2ccccc2)n1 | inconclusive: 1.3 nM
54 | Cc1ccc(SCc2[nH]nc3c2C2(C(=O)N(C)c4ccccc42)C(C#N)=C(N)O3)cc1 (configuration not stated) | inconclusive: 1.1 nM
55 | N[C@H](C(=O)O)c1cc(O)cc(O)c1 | inconclusive: 1.5 nM
56 | O=C(NCC1CCCO1)C(C(=O)c1ccccc1)n1cc(Cl)ccc1=O (configuration not stated) | inactive
57 | CCOC(=O)COn1c(=O)c(-c2ccc(OC)c(OC)c2)[n+]([O-])c2ccccc21 | inconclusive: 1.2 nM
58 | CCn1ccc(C(=O)Nc2ccc(S(=O)(=O)Nc3ccccc3OC)cc2)n1 | inconclusive: 2.2 nM
59 | Cc1cc(C)n(-c2ccc(C(=O)N3CCc4ccccc43)cc2)n1 | inconclusive: 1.1 nM
60 | CCc1c(C)nc2ncnn2c1N1CCC(C(=O)N2CCN(c3ccccc3)CC2)CC1 | inconclusive: 3.1 nM
61 | CN/C(=C\[N+](=O)[O-])NCCSCc1csc(CN(C)C)n1 | inactive
62 | O=C(c1ccc(F)cc1)C1CCN(C(=O)c2ccncc2)CC1 | inconclusive: 1.2 nM
63 | COc1ccc(-n2c(=O)c(-c3ccc(Cl)cc3)nc3cnc(N4CCNCC4)nc32)cc1 | inactive
64 | CC(C)c1[nH]nc2c1C(c1cccc(OC(=O)N3CCOCC3)c1)C(C#N)=C(N)O2 (configuration not stated) | inconclusive: 1.2 nM
65 | CCC(=O)N1CCc2cc(S(=O)(=O)NC(CC(C)C)C(=O)N3CCc4ccccc43)ccc21 (configuration not stated) | inconclusive: 1.2 nM
66 | COc1ccc(C(CNC(=O)c2cc(C)oc2C)N2CCOCC2)cc1 (configuration not stated) | inconclusive: 1.4 nM

Row | Structure (SMILES) | max dye-equivalent concentration
67 | CC(C)CCN1C(=O)c2ccc(C(=O)NCc3ccco3)cc2C1=O | inactive
68 | COc1ccccc1NC(=O)CSc1nc2sc(C)c(C)c2c(=O)n1Cc1ccco1 | inactive
69 | C=CCn1c(SCc2ccccc2)nnc1-c1cccnc1 | inconclusive: 1.6 nM
70 | Cc1ccc(C2NC(=O)c3c(sc4c3CCN(C)C4)N2)s1 (configuration not stated) | inactive
71 | Clc1ccccc1-c1nnc2sc(C3COc4ccccc4O3)nn12 (configuration not stated) | inconclusive: 1.8 nM
72 | CN(C)c1ccc(/C=N/n2ncc3ccccc32)cc1 | inactive
73 | O=C(NCCc1ccccc1)C1CCN(S(=O)(=O)N2CCCC2)CC1 | inconclusive: 2 nM
74 | Cc1cc2c(cc1Cl)N(C(=O)Nc1ccnc3ccccc13)CC2 | inconclusive: 1.4 nM
75 | O=c1c(-c2nc3ccccc3o2)c2oc3ccccc3n2c2ccccc12 | inconclusive: 1.2 nM
76 | N#CCSc1nnc(N)s1 | inconclusive: 1.8 nM
77 | COCCn1c(SCC(=O)Nc2nnc(C)s2)nnc1-c1c[nH]c2ccccc12 | inconclusive: 1.1 nM
78 | O=C(CN(C(=O)CCC(=O)Nc1nccs1)c1ccc(F)cc1)NCc1ccco1 | inconclusive: 1.4 nM
79 | CN(C)c1ncc2nc(-c3ccc(Cl)cc3)c(=O)n(Cc3cccs3)c2n1 | inactive
80 | COc1cccc(-n2c(C)c(C(C)=O)c(C(C)=O)c2C)c1 | inconclusive: 1.2 nM
81 | CCOC(=O)c1cn(CC)c2ccc(S(=O)(=O)N3CCC(C)CC3)cc2c1=O | inconclusive: 1.1 nM
82 | CSCCC(NC(=O)c1ccco1)C(=O)OC(C)C(=O)NC(=O)NC1CCCCC1 (configuration not stated) | inconclusive: 1.1 nM
83 | CS(=O)(=O)N1CCC[C@@]2(CCN(c3ccccc3)C2)C1 | inactive
84 | Cc1c(NC(=O)CN2CCN(C(c3ccccc3)c3ccccc3)CC2)c(=O)n(-c2ccccc2)n1C | inconclusive: 1.4 nM
85 | CCN1CCCC1CNC(=O)Cn1cnc2sc(C)c(S(=O)(=O)N3CCC(C)CC3)c2c1=O (configuration not stated) | inconclusive: 1.2 nM
86 | Cc1ccc(-c2noc(CCC(=O)Nc3ccc(C)cn3)n2)cc1 | inconclusive: 2 nM
87 | CC(C)c1nc(SCC(=O)N2CCCC2)c2ccccc2n1 | inconclusive: 1.2 nM

By substructure, the entries above with fluorine (seven)
Row | Structure (SMILES) | max dye-equivalent concentration
1 | O=C(Cn1cnc2c(nnn2Cc2ccccc2F)c1=O)NCC1CCCO1 (configuration not stated) | inconclusive: 1.3 nM
25 | O=C(Nc1ccc(F)cc1F)c1cc(-c2ccco2)on1 | inconclusive: 1.1 nM
29 | O=C(Nc1ccc(F)cc1)Nc1ccc(Cl)cn1 | inconclusive: 1.3 nM
41 | O=C(Nc1ccccc1)N1CCC(C(=O)N2CCN(S(=O)(=O)c3cccc(F)c3)CC2)CC1 | inconclusive: 1.3 nM
46 | O=C(NCCc1ccccc1F)[C@@H]1CSC2c3ccccc3C(=O)N21 (some centres not stated) | inconclusive: 2.1 nM
62 | O=C(c1ccc(F)cc1)C1CCN(C(=O)c2ccncc2)CC1 | inconclusive: 1.2 nM
78 | O=C(CN(C(=O)CCC(=O)Nc1nccs1)c1ccc(F)cc1)NCc1ccco1 | inconclusive: 1.4 nM
